Results reported in patent publication US20180320217A1, “METHODS FOR SAMPLING AND MEASURING ORAL LAVAGE PROTEINS” (The Procter & Gamble Company, priority 2017, published 2018).

Tests used:
[1] = system: peptides in gingival brush samples; test: Protein and peptide profiling of gingival brush samples (LC-MS/MS), TABLE 23; assay type: in vivo, human; settings: for Mean Cntl Bsl / Mean Cntl Wk3 / Mean TrtBsl / Mean TrtWk3: peptide abundance, gingival brush samples; for Mean Cntl Bsl / Mean Cntl Wk3 / Mean CntlBsl (peptide abundance) / Mean CntlWk3 (peptide abundance): control regimen; for Mean Cntl Bsl / Mean TrtBsl / Mean CntlBsl (peptide abundance) / Mean TrtBsl (peptide abundance): baseline; for Mean Cntl Wk3 / Mean TrtWk3 / Mean CntlWk3 (peptide abundance) / Mean TrtWk3 (peptide abundance): week 3; for Mean TrtBsl / Mean TrtWk3 / Mean TrtBsl (peptide abundance) / Mean TrtWk3 (peptide abundance): treatment regimen; for Mean CntlBsl (peptide abundance) / Mean CntlWk3 (peptide abundance) / Mean TrtBsl (peptide abundance) / Mean TrtWk3 (peptide abundance): pooled gingival brush samples, LC-MS/MS
[2] = system: proteins in oral lavage; test: Abundance of proteins in human oral lavage (SomaLogic), TABLE 1; assay type: in vivo; settings: for Means (Original Scale) High bleeder BL: high bleeders (gingivitis); for Means (Original Scale) High bleeder BL / Means (Original Scale) Low bleeder BL: baseline; for Means (Original Scale) Low bleeder BL: low bleeders (healthy); for Fold Change High bleeder BL vs Low bleeder BL / Fold Change High bleeder W4 vs High bleeder BL: oral lavage
[3] = abundance in oral lavage, high bleeders, week 4 of investigative products
[4] = high bleeders vs low bleeders at baseline
[5] = week 4 of investigative products vs baseline, high bleeders
[6] = high bleeders, week 4 of treatment vs baseline
[7] = high vs low bleeders at baseline

Substance	Mean Cntl Bsl [1]	Mean Cntl Wk3 [1]	Mean TrtBsl [1]	Mean TrtWk3 [1]	Means (Original Scale) High bleeder BL ([2]; abundance in oral lavage)	Means (Original Scale) High bleeder W4 [2, 3]	Means (Original Scale) Low bleeder BL ([2]; abundance in oral lavage)	Fold Change High bleeder BL vs Low bleeder BL [2, 4]	Fold Change High bleeder W4 vs High bleeder BL [2, 5]	further results
DNJB1_HUMAN	1670.3	1765.4	588.0	1472.7	–	–	–	–	–	–
WIBG_HUMAN	3468.5	4789.6	3729.9	5686.7	–	–	–	–	–	–
ODO2_HUMAN	30536.6	37348.6	20853.2	45660.4	–	–	–	–	–	–
6PGD_HUMAN	12758.4	18840.3	10096.9	20075.9	–	–	–	–	–	–
S10A8_HUMAN	–	–	–	–	–	–	–	–	–	Mean CntlBsl (peptide abundance) [1]: 38968.7; Mean CntlWk3 (peptide abundance) [1]: 41008.0; Mean TrtBsl (peptide abundance) [1]: 14185.0; Mean TrtWk3 (peptide abundance) [1]: 31460.6
CRNN_HUMAN	309640.1	501133.9	295264.9	482761.2	–	–	–	–	–	–
PDIA1_HUMAN	14218.1	23271.7	17143.1	27359.8	–	–	–	–	–	–
GLNA_HUMAN	13608.7	20891.9	13589.1	26133.8	–	–	–	–	–	–
GP146_HUMAN	9521.0	12181.9	7634.4	14633.5	–	–	–	–	–	–
TRFE_HUMAN	–	–	–	–	–	–	–	–	–	Mean CntlBsl (peptide abundance) [1]: 9903.5; Mean CntlWk3 (peptide abundance) [1]: 11794.2; Mean TrtBsl (peptide abundance) [1]: 11823.8; Mean TrtWk3 (peptide abundance) [1]: 16197.3
CATG_HUMAN	20293.9	17693.8	21478.2	12710.1	–	–	–	–	–	–
HSP71_HUMAN	21846.5	33255.0	30544.9	38078.3	–	–	–	–	–	–
PLEC_HUMAN	17501.7	40865.7	23162.7	46143.6	–	–	–	–	–	–
Alpha-enolase	–	–	–	–	217066	170325	110398	2.28	0.76	–
Amyloid beta A4 protein	–	–	–	–	128850	81350	51294	2.42	0.68	–
Ficolin-1	–	–	–	–	5106	1286	329	6.22	0.57	–
26S proteasome non-ATPase regulatory subunit 7	–	–	–	–	368	252	80	3.81	0.74	–
Thioredoxin domain-containing protein 12	–	–	–	–	33968	18352	7236	–	–	Fold Change High bleeder W4 vs High bleeder BL [2, 6]: 0.57; Fold Change High bleeder BL vs Low bleeder BL [2, 7]: 6.16
Serum amyloid P-component	–	–	–	–	83820	38594	17509	–	–	Fold Change High bleeder W4 vs High bleeder BL [2, 6]: 0.54; Fold Change High bleeder BL vs Low bleeder BL [2, 7]: 6.00
ATP synthase subunit beta, mitochondrial	–	–	–	–	526	265	162	2.70	0.58	–
Heat shock protein beta-1	–	–	–	–	216	124	84	2.28	0.61	–
Ephrin type-A receptor 2	–	–	–	–	47551	26305	16730	2.80	0.59	–
Complement component C9	–	–	–	–	76942	31536	7900	18.85	0.73	–
Protein E7_HPV18	–	–	–	–	493	–	200	–	–	Means (Original Scale) High bleeder W4 ([2]; in vivo, po): 249; Fold Change High bleeder W4 vs High bleeder BL [2, 6]: 0.66; Fold Change High bleeder BL vs Low bleeder BL [2, 7]: 2.26
Antithrombin-III	–	–	–	–	7388	2485	1424	5.80	0.95	–
C-reactive protein	–	–	–	–	2929	1665	285	12.47	0.72	–
CD109 antigen	–	–	–	–	512	302	233	2.24	0.61	–
